In article doi:10.1101/818187 one finds binding data, which are given here for one substance.

By UniProt entry, the sequences of proteins in these tests, tags left out. Where a name states a change or a piece, a line headed by the entry shows the natural chain unless it says otherwise.
UniProt Q9ZNS0: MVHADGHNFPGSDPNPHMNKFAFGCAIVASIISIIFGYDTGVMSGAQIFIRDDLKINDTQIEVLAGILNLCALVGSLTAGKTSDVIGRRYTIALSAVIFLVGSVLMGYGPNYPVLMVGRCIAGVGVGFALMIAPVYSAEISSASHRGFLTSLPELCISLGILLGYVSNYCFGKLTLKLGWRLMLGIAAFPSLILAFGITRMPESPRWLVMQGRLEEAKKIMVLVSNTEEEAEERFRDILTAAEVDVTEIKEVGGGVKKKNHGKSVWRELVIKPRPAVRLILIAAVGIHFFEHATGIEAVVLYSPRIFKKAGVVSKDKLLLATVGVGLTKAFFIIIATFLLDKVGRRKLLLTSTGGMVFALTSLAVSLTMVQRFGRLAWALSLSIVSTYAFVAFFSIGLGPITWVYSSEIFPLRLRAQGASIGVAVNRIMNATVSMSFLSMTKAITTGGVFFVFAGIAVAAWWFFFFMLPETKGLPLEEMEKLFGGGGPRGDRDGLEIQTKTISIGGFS

No constants are given. Whether binding was seen depends on the method and setting. Binding seen in cells or lysates may run through a third protein. Where a sequence is shown, tags or fusion partners need not be part of it.

This assay deals with T1, WOX5-mVenus (WUSCHEL-RELATED HOMEOBOX 5 fused to mVenus), β-estradiol inducible, in N. benthamiana (Arabidopsis thaliana) (UniProt Q8H1D2).
T1 sequence: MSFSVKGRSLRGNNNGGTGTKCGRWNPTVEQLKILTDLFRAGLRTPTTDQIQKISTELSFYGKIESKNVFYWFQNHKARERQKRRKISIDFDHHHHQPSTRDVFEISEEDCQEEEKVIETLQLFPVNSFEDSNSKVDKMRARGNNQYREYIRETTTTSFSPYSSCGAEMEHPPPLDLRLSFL
As to the kind of experiment: FRET or BRET. On the technique in general: In BRET a luciferase serves as donor, and the signal depends on an acceptor being close.

As to “PLT3ΔQ-mCherry (PLT3 with its polyQ domains deleted, fused to mCherry) (from UniProt Q9ZNS0)”, the binding result is recorded as “no binding”.
